PubChem BioAssay AID504793, Drosophila RNAi Screening Center, 2011
The deposit covers about 23,000 reagents; this is an unselected part of those with a known target gene and a result. Of all reagents, 62 (0.27%) are marked active. 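Calls come from follow-up tests whose scores are not deposited, so confirmed genes may have low counts here; counts are not normalised per plate.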 Raw values vary from plate to plate and are shown uncorrected. A number with no mark means an inactive call. Reagents against one gene are numbered here. Names joined by + are all predicted targets of the reagent. No sequences are given here.

Aim: 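Knock-downs allowing continued mitosis even though DNA is damaged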 (primary screen)
Cells: Drosophila S2R+ cells
Reagent: long dsRNA against Drosophila genes, about 0.25 µg dsRNA per well
Time to read-out: 4 days of dsRNA, then 4 hours of drug before read-out
Treatment: doxorubicin 0.5 µM for 4 hours to cause double-strand breaks, in cells also given a low, harmless dose of dsRNA against nbs to sensitise the assay
Detection: 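Mitotic index as the number of phospho-histone H3-positive cells in each well following doxorubicin, given as raw counts without normalisation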
Scale: mitotic cells: higher = more cells in mitosis, weaker G2 arrest
Active means: 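Genes are called active only when high mitotic counts were reproduced with independent dsRNAs and mitosis was checked for delay without damage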
Meaning of the calls: active = confirmed in follow-up tests; inactive = not confirmed

Gene | reagent no. | mitotic cells, replicate 1 | mitotic cells, replicate 2
CG13088 | 1 | 8 | –
crok (crooked) | 1 | 3 | –
crok (crooked) | 2 | 15 | –
crok (crooked) | 3 | 10 | –
Prim2 (DNA primase subunit 2) | 1 | 5 | –
CG5172 | 1 | 12 | –
CG5172 | 2 | 4 | –
CG18675 | 1 | 1 | –
Pak3 | 1 | 5 | –
Pak3 | 2 | 5 | –
CG7309 | 1 | 3 | –
CG7309 | 2 | 11 | –
CG8008 | 1 | 2 | –
CG8008 | 2 | 2 | –
hyx (hyrax) | 1 | 2 | –
blw (bellwether) | 1 | 5 | –
side-IV + CG17025 (retired record) | 1 | 5 | –
aub (aubergine) | 1 | 2 | –
aub (aubergine) | 2 | 7 | –
CG43386 | 1 | 16 | –
Ama (Amalgam) | 1 | 6 | –
His4r (Histone H4 replacement) | 1 | 11 | –
His4r (Histone H4 replacement) | 2 | 5 | –
Sras (severas) | 1 | 4 | –
CG14785 | 1 | 7 | –
Muc91C (Mucin 91C) | 1 | 16 | –
Muc91C (Mucin 91C) | 2 | 9 | –
Muc91C (Mucin 91C) | 3 | 7 | –
mRpL50 (mitochondrial ribosomal protein L50) | 1 | 8 | –
mRpL50 (mitochondrial ribosomal protein L50) | 2 | 7 | –
CG14708 | 1 | 5 | –
CG14708 | 2 | 11 | –
Mp20 (Muscle protein 20) | 1 | 5 | –
Mp20 (Muscle protein 20) | 2 | 8 | –
Ndc80 | 1 | 13 | –
Ndc80 | 2 | 15 | –
upd1 (unpaired 1) | 1 | 8 | –
upd1 (unpaired 1) | 2 | 6 | –
CG33308 | 1 | 2 | –
fry (furry) | 1 | 4 | –
fry (furry) | 2 | 10 | –
fry (furry) | 3 | 9 | –
fry (furry) | 4 | 4 | –
CG33252 | 1 | 10 | –
betaTry (betaTrypsin) | 1 | 16 | –
betaTry (betaTrypsin) | 2 | 8 | –
betaTry (betaTrypsin) | 3 | 2 | –
Sirt4 (Sirtuin 4) | 1 | 23 | –
Sirt4 (Sirtuin 4) | 2 | 4 | –

An excerpt of the results above, for reference:
Gene | reagent no. | mitotic cells, replicate 1 | mitotic cells, replicate 2
Sras (severas) | 1 | 4 | –
CG14785 | 1 | 7 | –
Muc91C (Mucin 91C) | 1 | 16 | –
Muc91C (Mucin 91C) | 2 | 9 | –
Muc91C (Mucin 91C) | 3 | 7 | –
mRpL50 (mitochondrial ribosomal protein L50) | 1 | 8 | –
mRpL50 (mitochondrial ribosomal protein L50) | 2 | 7 | –
CG14708 | 1 | 5 | –
CG14708 | 2 | 11 | –
Mp20 (Muscle protein 20) | 1 | 5 | –
Mp20 (Muscle protein 20) | 2 | 8 | –
Ndc80 | 1 | 13 | –
Ndc80 | 2 | 15 | –
upd1 (unpaired 1) | 1 | 8 | –
upd1 (unpaired 1) | 2 | 6 | –
CG33308 | 1 | 2 | –
fry (furry) | 1 | 4 | –

The list goes on.
Gene | reagent no. | mitotic cells, replicate 1 | mitotic cells, replicate 2
e(y)2b (enhancer of yellow 2b) | 1 | 8 | –
JYalpha | 1 | 13 | –
CG6688 | 1 | 9 | –
CG6688 | 2 | 6 | –
CG16717 | 1 | 3 | –
CG16717 | 2 | 7 | –
Ugt301D1 (UDP-glycosyltransferase family 301 member D1) | 1 | 3 | –
Delta | 1 | 8 | –
Delta | 2 | 4 | –
dnt (doughnut on 2) | 1 | 5 | –
dnt (doughnut on 2) | 2 | 2 | –
CG11672 | 1 | 11 | –
CG18622 | 1 | 3 | –
CG17803 | 1 | 12 | –
CG17803 | 2 | 11 | –
wake (wide awake) | 1 | 7 | –
wake (wide awake) | 2 | 12 | –
CG17024 (retired record) | 1 | 2 | –
CG7896 | 1 | 4 | –
CG13917 | 1 | 12 | –
CG13917 | 2 | 9 | –
CG1137 | 1 | 4 | –
CG1137 | 2 | 2 | –
Naa15-16 (N(alpha)-acetyltransferase 15/16) | 1 | 12 | –
Naa15-16 (N(alpha)-acetyltransferase 15/16) | 2 | 7 | –
CG7366 | 1 | 10 | –
CG7366 | 2 | 13 | –
Coq3 (Coenzyme Q3) | 1 | 5 | –
Pde1c (Phosphodiesterase 1c) | 1 | 4 | –
Pde1c (Phosphodiesterase 1c) | 2 | 3 | –
Pde1c (Phosphodiesterase 1c) | 3 | 1 | –
Pde1c (Phosphodiesterase 1c) | 4 | 3 | –
Pde1c (Phosphodiesterase 1c) | 5 | 4 | –
Pde1c (Phosphodiesterase 1c) | 6 | 4 | –
Pde1c (Phosphodiesterase 1c) | 7 | 7 | –
CG1638 | 1 | 6 | –
CG1638 | 2 | 7 | –
GLaz (Glial Lazarillo) | 1 | 12 | –
CG4983 | 1 | 3 | –
CG4983 | 2 | 8 | –
Naa20A (N(alpha)-acetyltransferase 20 A) | 1 | 9 | –
Vm26Ac (Vitelline membrane 26Aac) | 1 | 4 | –
Vm26Ac (Vitelline membrane 26Aac) | 2 | 2 | –
janB (janus B) | 1 | 12 | –
CG17625 | 1 | 6 | –
CG32213 + CG12519 + 825-Oak + 1 more | 1 | 4 | 20
Bcs1 (Bcs1 chaperone) | 1 | 8 | –
Ggamma30A (G protein gamma subunit 30A) | 1 | 7 | –
Ggamma30A (G protein gamma subunit 30A) | 2 | 6 | –
CG9672 | 1 | 9 | –
CG4615 | 1 | 10 | –
CG4615 | 2 | 4 | –
CG4615 | 3 | 5 | –
CG1774 | 1 | 6 | –
mei-38 (meiotic 38) | 1 | 9 | –
bdg (bedraggled) | 1 | 12 | –
Him (Holes in muscle) | 1 | 11 | –
CG7653 | 1 | 1 | –
stumps | 1 | 1 | –
stumps | 2 | 3 | –
CG15312 | 1 | 8 | –
CG15312 | 2 | 8 | –
